# Data as given in PubChem BioAssay AID1259254 (NCATS, 2017).
# Assay: 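Gene knock-downs that lead to re-replication, shown by excess G2 DNA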 (primary screen)
# Cell system: human HCT116 colorectal cancer cells
# Reagent: single siRNA against human genes
# Timing: 3 days
# Read-out: 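Imaged Hoechst DNA stain sorts each cell into a cycle phase by DNA amount; per plate, G2 fraction set to 0% for non-targeting and 100% for GMNN siRNA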
# Scale: G2 robust z-score and G2 cells, % of GMNN control: higher = more G2 cells, more excess DNA replication; raw share of cells in G2: higher = larger share of cells with G2 DNA content
# Hit rule: 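An siRNA counts as active if its G2 robust z-score lies at least 5 MADs above the screen median; here such calls match roughly 38% of GMNN control or more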
# Here is an unselected part of about 59,000 deposited reagents. About 1,550 of all reagents (2.6%) count as active. 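G2 share is only a proxy for re-replication; each gene was hit by three separate siRNAs, and active genes were retested.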 Raw values vary from plate to plate and are shown uncorrected. The numbers tell different reagents against one gene apart. Reagent sequences are not shown. The record does not give: the amount of reagent.
target gene,siRNA no.,G2 robust z-score,"G2 cells, % of GMNN control",raw share of cells in G2 (%),call
NXNL2 (nucleoredoxin like 2),1,-0.155,1.88,4.28,inactive
NXNL2 (nucleoredoxin like 2),2,0.853,8.97,5.97,inactive
NXNL2 (nucleoredoxin like 2),3,4.54,34.9,13.8,inactive
LINC01014 (long independently transcribed non-coding RNA 1014),1,2.27,19,11.5,inactive
LINC01014 (long independently transcribed non-coding RNA 1014),2,1.47,13.3,7.71,inactive
LINC01014 (long independently transcribed non-coding RNA 1014),3,2.51,20.6,10.7,inactive
"PPP3R2 (protein phosphatase 3 regulatory subunit B, beta)",1,1.34,12.4,8.83,inactive
"PPP3R2 (protein phosphatase 3 regulatory subunit B, beta)",2,-0.368,0.378,4.42,inactive
"PPP3R2 (protein phosphatase 3 regulatory subunit B, beta)",3,-0.364,0.41,3.62,inactive
UBE2D4 (ubiquitin conjugating enzyme E2 D4),1,0.586,7.09,6.52,inactive
UBE2D4 (ubiquitin conjugating enzyme E2 D4),2,-0.542,-0.843,3.93,inactive
UBE2D4 (ubiquitin conjugating enzyme E2 D4),3,-0.71,-2.03,5.03,inactive
FOXR1 (forkhead box R1),1,-0.135,2.02,5.55,inactive
FOXR1 (forkhead box R1),2,1.94,16.6,10.8,inactive
FOXR1 (forkhead box R1),3,-1.16,-5.19,3.48,inactive
CYP2U1 (cytochrome P450 family 2 subfamily U member 1),1,2.02,17.2,11,inactive
CYP2U1 (cytochrome P450 family 2 subfamily U member 1),2,3.17,25.3,17.4,inactive
CYP2U1 (cytochrome P450 family 2 subfamily U member 1),3,-0.396,0.184,5.05,inactive
DCST1 (DC-STAMP domain containing 1),1,-0.952,-3.73,2.58,inactive
DCST1 (DC-STAMP domain containing 1),2,-0.414,0.0547,2.93,inactive
DCST1 (DC-STAMP domain containing 1),3,0.204,4.41,4.6,inactive
CARD8 (caspase recruitment domain family member 8),1,0.262,4.81,5.51,inactive
CARD8 (caspase recruitment domain family member 8),2,-0.405,0.118,6.42,inactive
CARD8 (caspase recruitment domain family member 8),3,-1.01,-4.17,2.76,inactive
F5 (coagulation factor V),1,-0.671,-1.76,4.95,inactive
F5 (coagulation factor V),2,0.0367,3.23,6.05,inactive
F5 (coagulation factor V),3,4.77,36.5,17.5,inactive
DEFB132 (defensin beta 132),1,-0.777,-2.5,2.9,inactive
DEFB132 (defensin beta 132),2,1.2,11.4,8.06,inactive
DEFB132 (defensin beta 132),3,0.495,6.45,7.47,inactive
DMTN (dematin actin binding protein),1,1.21,11.5,10.7,inactive
DMTN (dematin actin binding protein),2,0.97,9.79,7.67,inactive
DMTN (dematin actin binding protein),3,2.03,17.3,10.3,inactive
PGAM1 (phosphoglycerate mutase 1),1,0.302,5.09,6.45,inactive
PGAM1 (phosphoglycerate mutase 1),2,-0.375,0.33,4.4,inactive
PGAM1 (phosphoglycerate mutase 1),3,0.872,9.1,6.24,inactive
ZNF136 (zinc finger protein 136),1,-1.06,-4.47,4,inactive
ZNF136 (zinc finger protein 136),2,0.244,4.69,5.3,inactive
ZNF136 (zinc finger protein 136),3,-1.13,-4.97,1.88,inactive
LOC401442,1,-0.514,-0.652,4.52,inactive
LOC401442,2,1.09,10.7,7.69,inactive
LOC401442,3,-0.266,1.1,3.95,inactive
NUP50 (nucleoporin 50),1,-0.761,-2.38,4.05,inactive
NUP50 (nucleoporin 50),2,0.0634,3.41,5.54,inactive
NUP50 (nucleoporin 50),3,0.5,6.49,5.6,inactive
PI4KB (phosphatidylinositol 4-kinase beta),1,-0.337,0.595,5.8,inactive
PI4KB (phosphatidylinositol 4-kinase beta),2,0.744,8.2,6.91,inactive
PI4KB (phosphatidylinositol 4-kinase beta),3,0.346,5.4,7.23,inactive
SDSL (serine dehydratase like),1,-0.964,-3.81,3.33,inactive
SDSL (serine dehydratase like),2,0.298,5.06,6.39,inactive
SDSL (serine dehydratase like),3,1.72,15,12.7,inactive
TUBA3E (tubulin alpha 3e),1,6.9,51.5,23.9,active
TUBA3E (tubulin alpha 3e),2,-0.957,-3.76,3.92,inactive
TUBA3E (tubulin alpha 3e),3,-0.925,-3.54,3.45,inactive
"METTL16 (methyltransferase 16, RNA N6-adenosine)",1,1.69,14.8,11.8,inactive
"METTL16 (methyltransferase 16, RNA N6-adenosine)",2,-1.08,-4.63,2.71,inactive
"METTL16 (methyltransferase 16, RNA N6-adenosine)",3,0.587,7.1,6.8,inactive
PTPRCAP,1,-1.39,-6.82,2.08,inactive
PTPRCAP,2,-0.664,-1.71,3.58,inactive
PTPRCAP,3,-0.464,-0.298,4.88,inactive
PLEKHA4 (pleckstrin homology domain containing A4),1,1.01,10.1,8.31,inactive
PLEKHA4 (pleckstrin homology domain containing A4),2,0.88,9.16,8.84,inactive
PLEKHA4 (pleckstrin homology domain containing A4),3,-0.628,-1.45,2.57,inactive
GLCE (glucuronic acid epimerase),1,-0.699,-1.95,3.54,inactive
GLCE (glucuronic acid epimerase),2,-0.806,-2.7,3.1,inactive
GLCE (glucuronic acid epimerase),3,4.77,36.5,22.7,inactive
AKAP7 (A-kinase anchoring protein 7),1,-0.321,0.708,5.81,inactive
AKAP7 (A-kinase anchoring protein 7),2,-1.47,-7.37,2.51,inactive
AKAP7 (A-kinase anchoring protein 7),3,0.232,4.6,5.16,inactive
"ZNF826P (zinc finger protein 826, pseudogene)",1,2.55,20.9,12.4,inactive
"ZNF826P (zinc finger protein 826, pseudogene)",2,-0.947,-3.69,1.81,inactive
"ZNF826P (zinc finger protein 826, pseudogene)",3,-0.674,-1.77,2.25,inactive
STAB2 (stabilin 2),1,-1.18,-5.33,2.48,inactive
STAB2 (stabilin 2),2,2.33,19.4,12.2,inactive
STAB2 (stabilin 2),3,-0.816,-2.78,2.25,inactive
DENND2A (DENN domain containing 2A),1,0.0905,3.6,4.39,inactive
DENND2A (DENN domain containing 2A),2,-1.16,-5.22,1.86,inactive
DENND2A (DENN domain containing 2A),3,-0.063,2.52,5.5,inactive
"ARB2BP (ARB2 family member B, pseudogene)",1,-0.747,-2.29,3.31,inactive
"ARB2BP (ARB2 family member B, pseudogene)",2,0.12,3.81,4.31,inactive
"ARB2BP (ARB2 family member B, pseudogene)",3,-0.284,0.972,2.93,inactive
LYZL6 (lysozyme like 6),1,0.797,8.58,5.75,inactive
LYZL6 (lysozyme like 6),2,0.149,4.02,5.93,inactive
LYZL6 (lysozyme like 6),3,0.902,9.31,8.91,inactive
LINC-PINT,1,0.476,6.32,5.94,inactive
LINC-PINT,2,1.15,11,8.2,inactive
LINC-PINT,3,-1.18,-5.36,2.34,inactive
LINC-PINT,4,-0.661,-1.68,2.97,inactive
LINC-PINT,5,3.29,26.1,13.3,inactive
LINC-PINT,6,-0.758,-2.37,2.31,inactive

In a second layout: entries from further up
| target gene | siRNA no. | G2 robust z-score | G2 cells, % of GMNN control | raw share of cells in G2 (%) | call |
| --- | --- | --- | --- | --- | --- |
| NUP50 (nucleoporin 50) | 2 | 0.0634 | 3.41 | 5.54 | inactive |
| NUP50 (nucleoporin 50) | 3 | 0.5 | 6.49 | 5.6 | inactive |
| PI4KB (phosphatidylinositol 4-kinase beta) | 1 | -0.337 | 0.595 | 5.8 | inactive |
| PI4KB (phosphatidylinositol 4-kinase beta) | 2 | 0.744 | 8.2 | 6.91 | inactive |
| PI4KB (phosphatidylinositol 4-kinase beta) | 3 | 0.346 | 5.4 | 7.23 | inactive |
| SDSL (serine dehydratase like) | 1 | -0.964 | -3.81 | 3.33 | inactive |
